The list is a part of this screen's results and no random one: it is rich in T/C values a quarter to a half above the control, in often repeated tests (any T/C) and in doses without a T/C. Other doses and runs of a compound stand elsewhere. T/C: endpoint of the treated group in % of that of the vehicle group. Some doses have a count of surviving animals in place of a T/C: the source files T/C as zero there, which appears to mark a toxic dose or a test without result, not a measured value. Some survivor counts are full or nearly so, which does not show that the dose was tolerated: the source hardly ever lists a survival T/C far under the control, and the zero likely stands for such cases as well. Counts of survivors are from the toxicity check (mostly the fifth day) where no day follows; animals may have died later. Schedule codes are those of the source, taken here to give the interval after Q, in days (D) or hours (H), and the number of doses after X. Some schedule codes hold Z or #, which are not explained here. Some entries hold several experiments; the results are listed from low to high. Where survival is the endpoint, this PubChem deposit counts one and a half times the control or more as active, and values a quarter to a half above the control carry no call in these data; other NCI protocols may use other cut-offs.
Test system: L1210 leukemia ip in BDF1 mice, survival T/C
Assay: NCI In Vivo Anticancer Drug Screen. Data for tumor model L1210 Leukemia (intraperitoneal) in B6D2F1 (BDF1) mice
Conditions: higher T/C = longer survival
[1] = T/C endpoint: mean survival time, dose: 400.0 mg/kg/injection, schedule: Q01DX001 (ip), vehicle: saline
[2] = T/C endpoint: mean survival time, dose: 100.0 mg/kg/injection, schedule: Q01DX009 (ip), vehicle: saline with Tween-80
[3] = T/C endpoint: mean survival time, dose: 200.0 mg/kg/injection, schedule: Q01DX009 (ip), vehicle: saline with Tween-80
[4] = T/C endpoint: mean survival time, dose: 400.0 mg/kg/injection, schedule: Q04DX002 (ip), vehicle: saline with Tween-80
[5] = T/C endpoint: mean survival time, dose: 150.0 mg/kg/injection, schedule: Q01DX001 (ip), vehicle: saline
[6] = T/C endpoint: mean survival time, dose: 300.0 mg/kg/injection, schedule: Q01DX001 (ip), vehicle: saline
[7] = T/C endpoint: mean survival time, dose: 400.0 mg/kg/injection, schedule: Q04DX002 (ip), vehicle: Klucel (hydroxypropylcellulose) (HPC)
[8] = T/C endpoint: mean survival time, dose: 200.0 mg/kg/injection, schedule: Q01DX009 (ip), vehicle: saline
[9] = T/C endpoint: mean survival time, dose: 400.0 mg/kg/injection, schedule: Q01DX009 (ip), vehicle: saline
[10] = T/C endpoint: mean survival time, dose: 100.0 mg/kg/injection, schedule: Q01DX009 (ip), vehicle: saline
[11] = T/C endpoint: mean survival time, dose: 200.0 mg/kg/injection, schedule: Q04DX003 (ip), vehicle: saline

CC[N+](C)(CC)CCCN(C)C(=O)C(c1ccccc1)c1ccccc1
survivor count (T/C endpoint: mean survival time, dose: 100.0 mg/kg/injection, schedule: Q01DX001 (ip), vehicle: saline): 0 of 6
survivor count (T/C endpoint: mean survival time, dose: 115.0 mg/kg/injection, schedule: Q04DX003 (ip), vehicle: saline): 2 of 6
survivor count (T/C endpoint: mean survival time, dose: 170.0 mg/kg/injection, schedule: Q04DX003 (ip), vehicle: saline): 2 of 6
survivor count (T/C endpoint: mean survival time, dose: 200.0 mg/kg/injection, schedule: Q01DX001 (ip), vehicle: saline): 0 of 6
survivor count [1]: 0 of 6

OCCCC1CCCCN1 (stereo not given)
survivor count (T/C endpoint: mean survival time, dose: 200.0 mg/kg/injection, schedule: Q04DX003 (ip), vehicle: acetone): 2 of 6
survivor count (T/C endpoint: mean survival time, dose: 400.0 mg/kg/injection, schedule: Q04DX003 (ip), vehicle: acetone): 0 of 6

CC(=O)OCC(OC(C)=O)C(OC(C)=O)C(OC(C)=O)C(O)C#N (stereo not given)
survivor count [2]: 1 of 3
survivor count [3]: 0 of 3

Clc1ccccc1C=NCC1CCC(CN=Cc2ccccc2Cl)CC1 (stereo not given)
survivor count [2]: 6 of 6
survivor count [3]: 3 of 3
survivor count (T/C endpoint: mean survival time, dose: 200.0 mg/kg/injection, schedule: Q04DX002 (ip), vehicle: saline with Tween-80): 3 of 3
survivor count [4]: 3 of 3

CCCC(CCC)NCCOC(=O)C(CC)c1ccccc1 (stereo not given)
survivor count [5]: 1 of 6
survivor count [6]: 0 of 6

C1=CN2CCCN3C=CC=c4ccc(c2c43)=C1
survivor count (T/C endpoint: mean survival time, dose: 30.0 mg/kg/injection, schedule: Q01DX009 (ip), vehicle: saline): 3 of 6
survivor count (T/C endpoint: mean survival time, dose: 75.0 mg/kg/injection, schedule: Q01DX001 (ip), vehicle: saline): 0 of 6
survivor count [5]: 0 of 6
survivor count [6]: 0 of 6

NC(CC(=O)O)c1nn[nH]n1 (stereo not given)
survivor count (T/C endpoint: mean survival time, dose: 400.0 mg/kg/injection, schedule: Q01DX009 (ip), vehicle: saline with Tween-80): 6 of 6

CCCCSN1CCCCC1
survivor count [4]: 0 of 3

CC(=O)OC1CC(n2cc(C)c(=O)[nH]c2=O)OC1COP(=O)(N1CC1)N1CC1 (stereo not given)
survivor count (T/C endpoint: mean survival time, dose: 100.0 mg/kg/injection, schedule: Q04DX002 (ip), vehicle: saline): 2 of 4

O=C(CCCN1CCC(O)CC1)c1ccc(N2CC=C(c3ccccc3)CC2)cc1
survivor count [7]: 3 of 3

CCCCCc1csc(-c2ccc(N(C)C)cc2)[n+]1C
survivor count (T/C endpoint: mean survival time, dose: 10.0 mg/kg/injection, schedule: Q01DX009 (ip), vehicle: Klucel (hydroxypropylcellulose) (HPC)): 0 of 6
survivor count (T/C endpoint: mean survival time, dose: 20.0 mg/kg/injection, schedule: Q01DX009 (ip), vehicle: Klucel (hydroxypropylcellulose) (HPC)): 0 of 6
survivor count (T/C endpoint: mean survival time, dose: 40.0 mg/kg/injection, schedule: Q01DX009 (ip), vehicle: Klucel (hydroxypropylcellulose) (HPC)): 0 of 6
survivor count (T/C endpoint: mean survival time, dose: 75.0 mg/kg/injection, schedule: Q01DX009 (ip), vehicle: Klucel (hydroxypropylcellulose) (HPC)): 6 of 6
survivor count (T/C endpoint: mean survival time, dose: 150.0 mg/kg/injection, schedule: Q01DX009 (ip), vehicle: Klucel (hydroxypropylcellulose) (HPC)): 0 of 6
survivor count (T/C endpoint: mean survival time, dose: 300.0 mg/kg/injection, schedule: Q01DX009 (ip), vehicle: Klucel (hydroxypropylcellulose) (HPC)): 0 of 6

NC(CO)CSCc1ccccc1 (stereo not given)
survivor count [8]: 1 of 6
survivor count [9]: 0 of 6

CC(=O)OCCC/C(=C\c1cccc([N+](=O)[O-])c1)[N+](=O)[O-]
survivor count (T/C endpoint: mean survival time, dose: 200.0 mg/kg/injection, schedule: Q01DX001 (ip), vehicle: other): 2 of 4
survivor count (T/C endpoint: mean survival time, dose: 400.0 mg/kg/injection, schedule: Q01DX001 (ip), vehicle: other): 0 of 4

Cn1c(=O)c2c(nc(OCC3CCCO3)n2C)n(C)c1=O (stereo not given)
survivor count [1]: 1 of 4

O=C(COCC(=O)N/N=C/c1ccc(Cl)cc1Cl)N/N=C\c1cc(Cl)cc(Cl)c1
survivor count (T/C endpoint: mean survival time, dose: 400.0 mg/kg/injection, schedule: Q01DX009 (ip), vehicle: Klucel (hydroxypropylcellulose) (HPC)): 5 of 6

CCCC(C)C(=NC)Nc1ccc(Cl)c(Cl)c1 (stereo not given)
survivor count (T/C endpoint: mean survival time, dose: 25.0 mg/kg/injection, schedule: Q01DX Z (ip), vehicle: methylcellulose (MC)): 2 of 6

COc1ccc(OC)c(/C=C/c2ccc(NC(=O)Nc3ccccc3Cl)cc2)c1
survivor count (T/C endpoint: mean survival time, dose: 50.0 mg/kg/injection, schedule: Q01DX009 (ip), vehicle: Klucel (hydroxypropylcellulose) (HPC)): 6 of 6
survivor count (T/C endpoint: mean survival time, dose: 100.0 mg/kg/injection, schedule: Q01DX009 (ip), vehicle: Klucel (hydroxypropylcellulose) (HPC)): 6 of 6
survivor count (T/C endpoint: mean survival time, dose: 200.0 mg/kg/injection, schedule: Q01DX009 (ip), vehicle: Klucel (hydroxypropylcellulose) (HPC)): 6 of 6
survivor count [7]: 3 of 3

NNC(=O)CCc1ccccc1[N+](=O)[O-]
survivor count [6]: 3 of 6

[Si]c1ccc(-c2ccccc2)cc1
survivor count (T/C endpoint: mean survival time, dose: 200.0 mg/kg/injection, schedule: Q04DX003 (ip), vehicle: saline with Tween-80): 6 of 6
survivor count (T/C endpoint: mean survival time, dose: 400.0 mg/kg/injection, schedule: Q04DX003 (ip), vehicle: saline with Tween-80): 6 of 6

COC(=O)C(Cc1c[nH]c2ccccc12)[N+](C)(C)C (stereo not given)
survivor count (T/C endpoint: mean survival time, dose: 75.0 mg/kg/injection, schedule: Q01DX Z (ip), vehicle: saline): 6 of 6
survivor count (T/C endpoint: mean survival time, dose: 110.0 mg/kg/injection, schedule: Q01DX Z (ip), vehicle: saline): 5 of 6 and 6 of 6
survivor count (T/C endpoint: mean survival time, dose: 165.0 mg/kg/injection, schedule: Q01DX Z (ip), vehicle: saline): 0 of 6
survivor count (T/C endpoint: mean survival time, dose: 250.0 mg/kg/injection, schedule: Q01DX Z (ip), vehicle: saline): 0 of 6
survivor count (T/C endpoint: mean survival time, dose: 375.0 mg/kg/injection, schedule: Q01DX Z (ip), vehicle: saline): 0 of 6

O=C1C=C(c2ccccc2)S(=O)(=O)C(c2ccccc2)=C1
survivor count (T/C endpoint: mean survival time, dose: 150.0 mg/kg/injection, schedule: Q01DX001 (ip), vehicle: carboxymethylcellulose (CMC)): 2 of 6
survivor count (T/C endpoint: mean survival time, dose: 300.0 mg/kg/injection, schedule: Q01DX001 (ip), vehicle: carboxymethylcellulose (CMC)): 0 of 6

CN1CN(c2ccccc2)C2(CCN(C(=O)/C=C/c3ccc(F)cc3)CC2)C1=O
survivor count (T/C endpoint: mean survival time, dose: 300.0 mg/kg/injection, schedule: Q04DX003 (ip), vehicle: Klucel (hydroxypropylcellulose) (HPC)): 5 of 6

CN(C)CCCC1(C#N)c2ccccc2CCc2ccccc21
survivor count [10]: 3 of 6
survivor count [11]: 2 of 4
survivor count (T/C endpoint: mean survival time, dose: 400.0 mg/kg/injection, schedule: Q04DX003 (ip), vehicle: saline): 0 of 4

CC(C)(C)NCC1C(c2ccccc2)C1c1ccccc1 (stereo not given)
survivor count (T/C endpoint: mean survival time, dose: 100.0 mg/kg/injection, schedule: Q04DX002 (ip), vehicle: Klucel (hydroxypropylcellulose) (HPC)): 0 of 3 and 3 of 3
survivor count (T/C endpoint: mean survival time, dose: 200.0 mg/kg/injection, schedule: Q04DX002 (ip), vehicle: Klucel (hydroxypropylcellulose) (HPC)): 0 of 3
survivor count [7]: 0 of 3

Cc1ccccc1C(O)C(Cl)(Cl)Cl (stereo not given)
T/C (T/C endpoint: median survival time, dose: 100.0 mg/kg/injection, schedule: Q04DX003 (ip), vehicle: Klucel (hydroxypropylcellulose) (HPC)): 130 % of control
survivor count (T/C endpoint: median survival time, dose: 800.0 mg/kg/injection, schedule: Q04DX003 (ip), vehicle: Klucel (hydroxypropylcellulose) (HPC)): 8 of 8

CCCCCCCCCCCCCCC[N+](C)(C)C
survivor count (T/C endpoint: mean survival time, dose: 50.0 mg/kg/injection, schedule: Q01DX009 (ip), vehicle: saline): 0 of 6
survivor count [10]: 0 of 6
survivor count [8]: 0 of 6
survivor count [9]: 0 of 6

CC1=CC(=O)C2=C(C)CCC3C(C)C(=O)OC3C12 (stereo not given)
T/C (T/C endpoint: mean survival time, dose: 100.0 mg/kg/injection, schedule: Q01DX001 (ip), vehicle: saline with Tween-80): 127 % of control

O=C(O)C(c1ccccc1)(c1ccccc1)c1ccccc1
survivor count [1]: 1 of 4

NC(=O)CC[n+]1ccccc1
survivor count (T/C endpoint: mean survival time, dose: 100.0 mg/kg/injection, schedule: Q04DX003 (ip), vehicle: saline): 5 of 6
survivor count [11]: 0 of 6

CC1(C)Cc2cccc(OC(=O)NO)c2O1
survivor count (T/C endpoint: mean survival time, dose: 100.0 mg/kg/injection, schedule: Q01DX001 (ip), vehicle: Klucel (hydroxypropylcellulose) (HPC)): 0 of 6
survivor count (T/C endpoint: mean survival time, dose: 200.0 mg/kg/injection, schedule: Q01DX001 (ip), vehicle: Klucel (hydroxypropylcellulose) (HPC)): 0 of 6
survivor count (T/C endpoint: mean survival time, dose: 400.0 mg/kg/injection, schedule: Q01DX001 (ip), vehicle: Klucel (hydroxypropylcellulose) (HPC)): 0 of 6
